Reference: US20090297501A1
Numbering of substitutions follows the chain as printed. Results are given in words; binding and its absence hold for the method and conditions named. Some binding calls cover weakened binding; strength is not graded here.

B1: hVB22B u2-wz4 sc(Fv)2 peak 1 (bivalent scFv type structural isomer) (scFv)
chain: QVQLVQSGPEVKKPGASVKVSCKASGYTFTNSWMNWVRQRPGKGLEWIGRIYPGDGETIYNGKFRVRVTITADESTSTAYMQLSSLRSEDTAVYYCARGYDDYSFAYWGQGTTVTVSSGGGGSGGGGSGGGGSDIVMTQSPLSLPVTPGEPASISCRSSKSLLHSNGNTYLYWFLQKPGQSPQLLIYRMSNLASGVPDRFSGSGSGTDFTLKISRVEAEDVGVYYCMQHIEYPFTFGQGTKLEIKGGGGSGGGGSGGGGSQVQLVQSGPEVKKPGASVKVSCKASGYTFTNSWMNWVRQRPGKGLEWIGRIYPGDGETIYNGKFRVRVTITADESTSTAYMQLSSLRSEDTAVYYCARGYDDYSFAYWGQGTTVTVSSGGGGSGGGGSGGGGSDIVMTQSPLSLPVTPGEPASISCRSSKSLLHSNGNTYLYWFLQKPGQSPQLLIYRMSNLASGVPDRFSGSGSGTDFTLKISRVEAEDVGVYYCMQHIEYPFTFGQGTKLEIK
B2: hVB22B u2-wz4 sc(Fv)2 peak 2 (single chain diabody type structural isomer) (scFv)
chain: B1 chain
B3: humanized anti-human Mpl antibody hVB22B u2-wz4 sc(Fv)2 (bulk, before separation of the structural isomers) (scFv)
chain: B1 chain
B4: modified hVB22B u2-wz4(v1) sc(Fv)2 (scFv)
chain: B1 chain with Q39E, Q176E, Q299K, Q436K
B5: modified hVB22B u2-wz4(v3) sc(Fv)2 (scFv)
chain: B1 chain with Q39E, Q176K, Q299K, Q436E

Tests used:
[1] = biological target: fusion protein of GST and MG10 (Gln213 to Ala231 in the amino acid sequence of human Mpl) (human) (UniProt P40238); experiment: Biacore on immobilised MG10-GST
[2] = biological target: fusion protein of GST and MG10 (Gln213 to Ala231 in the amino acid sequence of human Mpl) (human) (UniProt P40238); experiment: Biacore on immobilised MG10-GST (recalled in Example 2-4)
[3] = biological target: fusion protein of GST and MG10 (Gln213 to Ala231 in the amino acid sequence of human Mpl) (human) (UniProt P40238); experiment: affinity column with immobilised MG10-GST fusion protein

binding [1] | binding [2] | binding [3] | Binder
binds | binds | – | B1
binds | binds | – | B2
– | – | binds | B3
– | – | binds | B4
– | – | binds | B5
